# Data as given in PubChem BioAssay AID504774 (Drosophila RNAi Screening Center, 2011).
# Purpose: 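Genes required for cells to withstand methyl methanesulphonate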 (primary screen)
# System: Drosophila Kc167 cells
# Reagents: long dsRNA against Drosophila genes, about 0.25 µg dsRNA per well
# Time to read-out: about 6 days: 3 days knock-down, then 3 days with or without MMS
# Treatment: methyl methanesulphonate 0.004% (w/v) for 3 days after knock-down
# Measured: 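ATP-dependent luminescence as a measure of live cells in MMS-exposed wells, quantile normalised within each plate, with replicate values also given as a mean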
# Direction: mean viability with MMS and viability with MMS: higher = more surviving cells after MMS
# The deposit covers about 23,000 reagents; shown is a random part of those that have a named target and a result. 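Values are quantile-normalised luminescence on an arbitrary scale; higher means more cells surviving MMS.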 The numbers tell different reagents against one gene apart. A plus sign joins genes that one reagent is predicted to hit. No sequences are given here.
gene knocked down,dsRNA no.,mean viability with MMS,"viability with MMS, replicate 1","viability with MMS, replicate 2"
CG42540,1,3.19e6,3.67e6,3.71e6
CG42540,2,3.45e6,3.91e6,3.91e6
CG42540,3,3.00e6,3.51e6,3.51e6
CG42540,4,3.61e6,4.16e6,4.03e6
sesB,1,3.45e6,3.98e6,3.83e6
CG2187,1,3.64e6,4.09e6,4.16e6
CR18166,1,3.61e6,4.06e6,4.08e6
CR18166,2,3.54e6,3.88e6,4.16e6
CG5535,1,3.71e6,4.26e6,4.07e6
sip3,1,3.68e6,4.35e6,3.95e6
CG2124,1,3.49e6,3.98e6,3.91e6
kn,1,3.63e6,4.04e6,4.12e6
kn,2,3.74e6,4.11e6,4.24e6
kn,3,3.43e6,3.87e6,3.96e6
kn,4,3.48e6,4.07e6,3.91e6
kn,5,3.59e6,4.09e6,4.05e6
CG2854,1,3.43e6,3.83e6,3.95e6
CAH1 + Adat1,1,3.46e6,4.11e6,3.71e6
Mfap1,1,3.08e6,3.63e6,3.65e6
CG14357,1,3.29e6,3.56e6,3.87e6
bmm,1,3.91e6,4.27e6,4.45e6
CG13840,1,3.34e6,3.73e6,3.76e6
CG13840,2,3.56e6,3.92e6,4.18e6
lncRNA:CR32730,1,3.51e6,4.04e6,3.93e6
Ant2,1,3.54e6,4.14e6,3.98e6
NC2beta,1,3.71e6,4.31e6,4.16e6
CG3748,1,3.48e6,3.69e6,4.21e6
CR30374,1,3.56e6,4.05e6,4.03e6
CG12769,1,3.60e6,4.13e6,4.04e6
hebe,1,3.60e6,4.02e6,4.14e6
hebe,2,3.73e6,4.23e6,4.22e6
hebe,3,3.62e6,4.11e6,4.10e6
bbc,1,3.71e6,4.23e6,4.19e6
bbc,2,3.54e6,3.98e6,4.04e6
Ir60a,1,3.45e6,3.90e6,3.91e6
CG9147,1,3.49e6,3.97e6,3.93e6
CG7065,1,3.55e6,4.01e6,3.74e6
CG13692,1,3.55e6,3.91e6,4.14e6
fws,1,3.39e6,3.93e6,3.70e6
CG15543,1,3.44e6,3.96e6,3.80e6
CG16995,1,3.61e6,4.11e6,4.10e6
GILT3,1,3.43e6,3.96e6,3.78e6
CG42260,1,3.83e6,4.42e6,4.28e6
CG42260,2,3.71e6,4.29e6,4.08e6
CG42260,3,3.77e6,4.31e6,4.18e6
PXo,1,3.84e6,4.33e6,4.38e6
Ir41a,1,3.50e6,4.03e6,3.91e6
Ir41a,2,3.74e6,4.33e6,4.11e6
inaD,1,3.60e6,4.22e6,3.95e6
CG31668,1,3.64e6,4.20e6,3.99e6
CG32299 + CG32298,1,3.52e6,4.04e6,3.92e6
CG32299 + CG32298,2,3.50e6,3.93e6,4.02e6
CG12025,1,3.53e6,4.00e6,4.00e6
CG8306,1,3.54e6,4.00e6,4.03e6
Ser7,1,3.51e6,3.89e6,3.79e6
CG18735,1,3.60e6,4.10e6,4.07e6
CR40354,1,2.25e6,3.97e6,3.61e6
Ir68a,1,3.56e6,4.04e6,4.03e6
CG13557,1,3.62e6,4.18e6,4.05e6
halo,1,3.51e6,3.92e6,4.03e6
CG12170,1,3.83e6,4.36e6,4.31e6
CG33232 (retired record),1,3.47e6,3.94e6,3.91e6
CG33232 (retired record),2,3.43e6,3.86e6,3.93e6
CG9717,1,3.44e6,3.82e6,3.92e6
CG13127,1,3.46e6,3.98e6,3.87e6
Pkcdelta,1,3.54e6,3.87e6,4.15e6
Pkcdelta,2,3.51e6,3.85e6,4.09e6
CtsB,1,3.61e6,4.20e6,4.03e6

Laid out differently: results already given.
gene knocked down | dsRNA no. | mean viability with MMS | viability with MMS, replicate 1 | viability with MMS, replicate 2
CG42260 | 3 | 3.77e6 | 4.31e6 | 4.18e6
PXo | 1 | 3.84e6 | 4.33e6 | 4.38e6
Ir41a | 1 | 3.50e6 | 4.03e6 | 3.91e6
Ir41a | 2 | 3.74e6 | 4.33e6 | 4.11e6
inaD | 1 | 3.60e6 | 4.22e6 | 3.95e6
CG31668 | 1 | 3.64e6 | 4.20e6 | 3.99e6
CG32299 + CG32298 | 1 | 3.52e6 | 4.04e6 | 3.92e6
CG32299 + CG32298 | 2 | 3.50e6 | 3.93e6 | 4.02e6
CG12025 | 1 | 3.53e6 | 4.00e6 | 4.00e6
CG8306 | 1 | 3.54e6 | 4.00e6 | 4.03e6
Ser7 | 1 | 3.51e6 | 3.89e6 | 3.79e6
